Results taken from paper PMC6033357.
No constants are given. Whether binding was seen depends on the method and setting. In cells and extracts the contact can be indirect. A result given as binding can be weak or reduced; the word gives no strength.

By UniProt entry, the sequences of proteins in these tests, tags left out. Where a name states a change or a piece, a line headed by the entry shows the natural chain unless it says otherwise.
UniProt Q86X55: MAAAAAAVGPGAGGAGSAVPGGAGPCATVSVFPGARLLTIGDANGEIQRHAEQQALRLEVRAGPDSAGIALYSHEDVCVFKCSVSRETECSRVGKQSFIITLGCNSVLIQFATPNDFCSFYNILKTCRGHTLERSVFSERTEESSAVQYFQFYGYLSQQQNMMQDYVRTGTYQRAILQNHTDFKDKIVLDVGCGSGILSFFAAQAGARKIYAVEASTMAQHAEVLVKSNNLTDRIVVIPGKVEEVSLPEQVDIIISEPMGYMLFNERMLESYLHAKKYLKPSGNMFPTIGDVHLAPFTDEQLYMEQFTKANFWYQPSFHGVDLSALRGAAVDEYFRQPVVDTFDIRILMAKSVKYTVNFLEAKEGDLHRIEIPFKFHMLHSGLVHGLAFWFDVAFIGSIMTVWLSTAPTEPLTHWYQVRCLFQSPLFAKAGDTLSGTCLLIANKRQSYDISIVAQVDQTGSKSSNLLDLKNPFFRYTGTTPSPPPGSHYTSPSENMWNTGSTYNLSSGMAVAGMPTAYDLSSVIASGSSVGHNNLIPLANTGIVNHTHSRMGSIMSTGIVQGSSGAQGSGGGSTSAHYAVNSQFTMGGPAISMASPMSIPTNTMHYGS

Biological target: T1, Nucleus accumbens-associated protein 1 (NAC1), endogenous (human (endogenous in HeLa, ovarian cancer cell lines and HEK293T)) (UniProt Q96RE7)
T1 sequence: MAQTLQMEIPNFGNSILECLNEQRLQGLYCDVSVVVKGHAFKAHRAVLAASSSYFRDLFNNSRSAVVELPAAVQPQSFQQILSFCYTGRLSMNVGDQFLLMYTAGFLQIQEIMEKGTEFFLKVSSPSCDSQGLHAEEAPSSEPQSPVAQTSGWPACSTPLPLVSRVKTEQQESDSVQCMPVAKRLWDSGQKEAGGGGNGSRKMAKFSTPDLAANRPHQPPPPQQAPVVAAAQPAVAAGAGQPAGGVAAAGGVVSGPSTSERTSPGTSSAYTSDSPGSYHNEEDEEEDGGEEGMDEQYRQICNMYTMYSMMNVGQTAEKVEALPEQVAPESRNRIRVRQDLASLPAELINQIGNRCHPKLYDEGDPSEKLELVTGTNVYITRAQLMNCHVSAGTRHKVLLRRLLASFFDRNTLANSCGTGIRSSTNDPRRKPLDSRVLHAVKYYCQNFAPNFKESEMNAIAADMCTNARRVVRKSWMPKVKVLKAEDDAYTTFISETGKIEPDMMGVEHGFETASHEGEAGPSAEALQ
Test: co-IP; FLAG-tagged wild-type or truncated CARM1 expressed in HEK293T cells, immunoprecipitated with anti-NAC1 antibody (endogenous NAC1), Western blotting

- binding: binds
Substance: FLAG-tagged CARM1-D3 (residues 135-608, lacking the amino-terminal domain) (from UniProt Q86X55) (domain or fragment)
